Measurements reported in PubChem BioAssay AID1259308 (NCATS, 2017)

Screen: 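Knock-downs that increase output of a recombinant reporter protein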 (primary screen)
System: human HEK293 embryonic kidney cells stably expressing firefly luciferase (HEK-CMV-Luc2-Hygro)
Reagent: single siRNA against human genes, 0.8 pmol siRNA per well
Timing: 72 h
Measured: 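Luciferase light (ONE-Glo) measured on one replicate plate set and viability (CellTiter-Glo) on the other, scaled to a negative control siRNA, with robust z-scores and luciferase per cell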
Direction: total luciferase, z-score: higher = more reporter protein produced
Call rule: 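An siRNA counts as active if its total luciferase robust z-score exceeds 3; genes with two or more such siRNAs out of three were retested with fresh siRNAs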
Calls: active = raised luciferase; inactive = no rise
The whole screen tested about 59,000 reagents; shown is a random part of them. About 1,510 of them (2.6%) were called active. 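Calls use total luciferase alone and ignore viability, so some active siRNAs may act by altering cell number.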 Unmarked entries are inactive. The numbers tell different reagents against one gene apart. Further read-outs or replicates are left out here. No sequences are given here.

KRTAP2-2 (keratin associated protein 2-2) #1 — total luciferase, z-score: 0.245
KRTAP2-2 (keratin associated protein 2-2) #2 — total luciferase, z-score: -0.806
KRTAP2-2 (keratin associated protein 2-2) #3 — total luciferase, z-score: 0.387
SLC38A12 #1 — total luciferase, z-score: -0.684
SLC38A12 #2 — total luciferase, z-score: 0.677
SLC38A12 #3 — total luciferase, z-score: -0.776
MYOZ3 (myozenin 3) #1 — total luciferase, z-score: -0.245
MYOZ3 (myozenin 3) #2 — total luciferase, z-score: 0.389
MYOZ3 (myozenin 3) #3 — total luciferase, z-score: 0.276
HOGA1 (4-hydroxy-2-oxoglutarate aldolase 1) #1 — total luciferase, z-score: 0.448
HOGA1 (4-hydroxy-2-oxoglutarate aldolase 1) #2 — total luciferase, z-score: -0.46
HOGA1 (4-hydroxy-2-oxoglutarate aldolase 1) #3 — total luciferase, z-score: -0.0151
HMCES (5-hydroxymethylcytosine binding, ES cell specific) #1 — total luciferase, z-score: 0.475
HMCES (5-hydroxymethylcytosine binding, ES cell specific) #2 — total luciferase, z-score: 1.78
HMCES (5-hydroxymethylcytosine binding, ES cell specific) #3 — total luciferase, z-score: -0.503
DNAJC8 (DnaJ heat shock protein family (Hsp40) member C8) #1 — total luciferase, z-score: -0.32
DNAJC8 (DnaJ heat shock protein family (Hsp40) member C8) #2 — total luciferase, z-score: 1.28
DNAJC8 (DnaJ heat shock protein family (Hsp40) member C8) #3 — total luciferase, z-score: 1.47

No new results follow: entries from further up.
KRTAP2-2 (keratin associated protein 2-2) #1 — total luciferase, z-score: 0.245
KRTAP2-2 (keratin associated protein 2-2) #2 — total luciferase, z-score: -0.806
KRTAP2-2 (keratin associated protein 2-2) #3 — total luciferase, z-score: 0.387

Further entries:
CARD16 (caspase recruitment domain family member 16) #1 — total luciferase, z-score: -0.494
CARD16 (caspase recruitment domain family member 16) #2 — total luciferase, z-score: 0.188
CARD16 (caspase recruitment domain family member 16) #3 — total luciferase, z-score: -1.26
C8orf34 (chromosome 8 open reading frame 34) #1 — total luciferase, z-score: -0.114
C8orf34 (chromosome 8 open reading frame 34) #2 — total luciferase, z-score: 1.58
C8orf34 (chromosome 8 open reading frame 34) #3 — total luciferase, z-score: -0.277
C19orf73 (chromosome 19 open reading frame 73) #1 — total luciferase, z-score: 0.881
C19orf73 (chromosome 19 open reading frame 73) #2 — total luciferase, z-score: 0.338
C19orf73 (chromosome 19 open reading frame 73) #3 — total luciferase, z-score: -0.698
TYK2 (tyrosine kinase 2) #1 — total luciferase, z-score: 0.00905
TYK2 (tyrosine kinase 2) #2 — total luciferase, z-score: 1.61
TYK2 (tyrosine kinase 2) #3 — total luciferase, z-score: -0.941
MAGT1 (magnesium transporter 1) #1 — total luciferase, z-score: -0.0507
MAGT1 (magnesium transporter 1) #2 — total luciferase, z-score: -1.13
MAGT1 (magnesium transporter 1) #3 — total luciferase, z-score: -0.709
